The whole screen tested about 53,000 sequences, of which about 3,700 (7%) were called active.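 How the source made its calls: active means gene knockdowns whose robust z-score for IL-1 alpha signal is at least 2 or at most -2, so actives lie on both sides; inactive means the rest.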 This is one part of the list.
experiment: Components of the Cytosolic LPS Sensing Pathway: Gene Identification via Genome-wide siRNA Screen; conditions: RAW264.7 macrophages, IL-1a HTRF, actives lie on both sides, screened at 100 nM (by protocol), cells primed 5 h with Pam3CSK4 first;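 further: robust z of the log signal after scaling to non-targeting control siRNA wells of the plate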
In short: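 Using IL-1a HTRF as read-out, the screen measured release from RAW264.7 cells after 48h siRNA knockdown (100 nM), 5 h Pam3CSK4 priming and 24 h cytosolic LipidA. Values were expressed relative to negative-control wells as robust z-scores.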

Sequence | z-score
GGUGGCACAUCAGUGUUUGTT against H2al2a | inactive: 1.16
GCUGACUUCGGAGAUUAUATT against Ptpn14 | inactive: -0.0471
CCUCUGUUUGCACUUAUUATT against Gabrr1 | inactive: -0.232
GGUUAUCGCCCAAUGACGGTT against Dmrt2 | inactive: 0.469
GGAGGUCCAAGUAGCUCUUTT against Olfr5 | inactive: -1.11
GGCCUAAACACGGUUUUCATT against Ppm1n | active: 3.72
GGUGGUGUUAAAAUAUACUTT against Gnl3 | active: 3.07
GCUAAUCCCAUCUCGUCCUTT against 3110009E18Rik | inactive: 1.15
GGUGUCCUCCUUUCAGUUUTT against Tas2r114 | inactive: -0.16
GGUGAUGGUCCAGAUUAACTT against Plpbp | inactive: -0.0895
GGUUCUGGUUUAGAUGCUATT against H2aw | active: 2.36
GGAGUAGUGAAGAUUCGGATT against Fdft1 | inactive: 0.651
GGCCUGAAGACAGACAUGATT against C030016D13Rik | inactive: -1.2
GGGCUGAGUUAGAUUAAAATT against Cds1 | inactive: 0.65
GGCUAUUUUUUAGCAAAGATT against Wasl | inactive: -0.0743
GGCAAGUUAAAAAUGGUAGTT against Tjp1 | inactive: -1.99
GGAAUAAUAUGCAUGUAGATT against Rab21 | inactive: -0.911
GGAAGUGGUUGCUUAGGCATT against 1700041G16Rik | inactive: 0.363
CCGUGAAAGUACAUUGUAUTT against Dennd11 | inactive: 0.121
GGAACAUGUCCAUUAUCACTT against Vmn1r232 | inactive: 0.811
GUAUGCUGGCAGCUCAUUGTT against Klra6 | inactive: -0.883
GCAUGACCUCAGGUUUUCUTT against Il20rb | inactive: 1.57

Sequence | z-score
GGACUCUGUAGUUGAAGAUTT against Pogz | inactive: -0.882
GGACUUGAUUUAGUGGAAGTT against Cwc22 | inactive: -0.294
CGUAUGAAGCUUAAUAGCATT against Polq | inactive: -0.219
GGAAAACACAACAUGAUACTT against Doc2b | inactive: 0.141
GGAGCCACUGGAAAAUUUATT against Ralgapb | inactive: 1.47
CCGAUUGAAUGAACAACGGTT against Zfp131 | inactive: -1.41
GCAGAGGACCAUUAAUUUATT against Cd180 | inactive: 0.499
GGCCAAAAGUAUGAAAGUATT against Tspan1 | inactive: 0.45
GGAGCCAUUAUAUAUGUCATT against Abi2 | inactive: 0.962
GAUGAAGCUGCUUUACCACTT against Hes5 | inactive: 0.318
CCCAAGGUGAUGGUGUCCUTT against Hspa1l | inactive: 1.68
GGUUCUUUUGCCUUCAGUGTT against Slc7a10 | inactive: 0.67
GUUCUGCUUUUUGUCAUAUTT against Olfr1431 | inactive: -0.79
GGAAAAAGAGGCCUCAAAGTT against Nek5 | inactive: 1.46
GCUACUAUGUGCCUGUGACTT against Oc90 | active: -2.21
GGUGUGCAUUGGAAUUAUGTT against Mogat1 | inactive: -0.428
GCCAGCUUACGAACAUUAATT against Mctp1 | inactive: -0.659
GGAGAUUUCCAAGAUUCUGTT against Abcc4 | inactive: -0.348
CCUGUACAUUGUGUAAUGUTT against Pcdh8 | inactive: 0.0925
GGUCCUGAUGUUGAAGGCATT against Rinl | inactive: 0.647
CCAGGUGAUGUCUAGAUAATT against S1pr5 | inactive: -0.119
CGUGUUUGUAGAUAAACCATT against Kcnh8 | inactive: -0.392

A few values from the entries so far:
z-score with GGUGUGCAUUGGAAUUAUGTT against Mogat1 is entered as inactive: -0.428
z-score with GGAAAAAGAGGCCUCAAAGTT against Nek5 is entered as inactive: 1.46

Additional entries

Sequence | z-score
GCCAUUAAAGGUAACACUGTT against Tmbim7 | inactive: 0.0423
GGAACAGAAAGAAAAAGACTT against Plcd4 | inactive: -1.12
GGAAUACAAUGUCUCCAUCTT against Il3ra | inactive: -0.518
GCUCUCAGCAAAAACCGAGTT against Kif26b | active: 2.98
GGAACAAGAAGACUGUGAATT against Pcnt | inactive: -0.519
CCAGGAAUCUAGAUAAUAGTT against BC031181 | inactive: -1.05
GCUUCCUCUACAUCCUGCUTT against Kcnk15 | inactive: 0.429
GCCAACCUCUUAAACACUATT against Trpm5 | inactive: 0.616
CCUUAAUCACCACCUUCAUTT against Tmem245 | inactive: 0.893
GCUACACCCGCAUGACAAATT against Trit1 | active: 2.43
GGCAAACUGCGUGUACACUTT against Tmed4 | inactive: -1.79
GGACUCAGAAGAAAUGGACTT against Osbpl6 | inactive: 0.109
GAUGCAAAGUUUCUUCUUCTT against Olfr745 | inactive: 0.389
GCCAGGCAACGAAACUCAGTT against Leng1 | inactive: -0.31
CCAGGCAUGGAAAUCAACUTT against Ramp3 | inactive: -0.928
CGAGUUGAUUAAAGAUUGUTT against E2f6 | inactive: 0.0157
GGACAAGCAGUCCACUUGGTT against Ski | inactive: 0.679
GGACAAUCUCUUCAGGAGUTT against Gzme | inactive: -1.16
GCUUUAAUGCCAGUUUGGGTT against Olfr1391 | inactive: -0.472
GGUCAUUCUGGCAUUAAUGTT against Clec4f | inactive: -0.364
GUUGGUUUGUUGACCUCUUTT against Arap2 | inactive: 0.1
GGAGAGUUUUAGAUGCCUCTT against Eri3 | inactive: -0.124

In a second layout: results already given
GGACAAGCAGUCCACUUGGTT against Ski
  z-score: inactive: 0.679
GGACAAUCUCUUCAGGAGUTT against Gzme
  z-score: inactive: -1.16
GCUUUAAUGCCAGUUUGGGTT against Olfr1391
  z-score: inactive: -0.472
GGUCAUUCUGGCAUUAAUGTT against Clec4f
  z-score: inactive: -0.364

Further results

Sequence | z-score
GGUUGCUUGGAAUUAAAAGTT against Klhl1 | inactive: -1.58
CGAUGGUACACUCAAUGAUTT against Hk2 | inactive: 1.89
GGCCAAGAAAAUGAUUGCATT against Gpr19 | inactive: -0.445
GGAGUGGUCUGACAGAAGATT against Epdr1 | inactive: 0.483
CGGGAUUUGAAAGACUCAGTT against A530032D15Rik | inactive: -0.136
GGUCUUUUUGGUCUUAUUUTT against Olfr293 | inactive: -1.02
CCUCUUGGUUAAAUAAUGUTT against Rnf103 | inactive: -1.9
GCGGUGUUUAAGCAUUGAUTT against Leprot | inactive: -0.0992
GGCCAGAACCACCAAAGAATT against Zc2hc1a | inactive: -0.753
CCAAGUGAAGACACGAUUGTT against Zfp809 | inactive: -1.22
CCCUGACCUUGUGGUAGAATT against Aspdh | inactive: -0.165
GCGAGAGCUAAAGUAAAAUTT against Egln1 | inactive: -0.671
CCUAAAAGCAGGCCAAAAUTT against Dhx29 | inactive: -1.26
GGCUGAAGGAGCAAUCAAATT against L3mbtl3 | inactive: 1.85
GGAUAUGUUGCUCACAUAATT against Abca13 | inactive: -0.414
GGGAACUGAAUUUUUCAGUTT against Ank3 | inactive: 1.43
GGAGCUAGAUAGGAAAAAATT against Vill | inactive: -1.44
GGCUAUAGGGAUGAUCAUATT against Cysltr1 | inactive: -0.93
UGGUAAGUAUUCAUGAAUCTT against Vmn1r219 | inactive: -0.366
GCAGCUAAGCACUGGAAAATT against Coq4 | inactive: 0.318
GCUCUAAGGACCAUAUACCTT against Ppm1d | inactive: 0.257
CGUAUUCCAUGAAUUCUGUTT against Rnf121 | inactive: 0.266

Sequence | z-score
GGUACAAGAGAUUUGAAAATT against Wdpcp | inactive: 0.717
GGCAGUAUGCUCCCAGAAUTT against Fndc4 | inactive: 1.88
GGCAGAAUGGCUAUCUAGATT against Ufl1 | inactive: -0.423
GGCAUCACAGAAGGUUUAUTT against Rock2 | active: 4.17
GGCUCCUGUAAUGCUAACUTT against Zfp715 | inactive: -0.191
GGACUUUCGUGAUUGUAGATT against Prkdc | inactive: -0.647
GGUAUUUCAGAUAACCUGGTT against Bbs12 | active: 2.9
GGACAGGUAAAAAUUUAGGTT against Npsr1 | inactive: 0.54
GGAACCUGUCCUAUAUAGGTT against Zfp799 | inactive: 0.668
GGGUUGAACCUAUGUCAUCTT against Zfp764 | inactive: -0.45
GGAGCAAAAGAAGAAGAACTT against Mtdh | inactive: -0.886
GGUUCUGGCUCUUCUCUGUTT against Mogat2 | inactive: -1.42
GGGUGAAACCCAUAAAAAUTT against Zfp974 | inactive: -1.27
GGAGACAGCUAAGAAACUGTT against Hsd11b2 | inactive: -1.02
GGAGAAGAGAAAAAAGGAUTT against Pla1a | inactive: 0.0583
GGGUAGAAGUUGAUGUCAUTT against Tmem79 | inactive: -0.342
GGUCGGAAGCUGGUCUUUUTT against Pkdcc | inactive: 0.707
CGGGUCACAAGGCUUCAAATT against Szrd1 | inactive: 0.576
CCAAUCAAUUCUCAGCGACTT against Sufu | inactive: 0.161

— PubChem BioAssay AID1508600 (Functional Genomics Laboratory (NCATS/FGL), 2020)
